Drawing on article doi:10.1101/334953, this text covers binding for one substance.

These are yes or no findings as the source states them, for the method shown. Binding seen in cells or lysates may run through a third protein. Binding calls can cover weak binding; strength is not graded here. Tags and fused reporters may be left off the sequences shown.

For the experiment, the target named is T1, sfGFP-Pi (P-cell-specific homeobox protein Pi, N-terminally tagged with sfGFP) (Schizosaccharomyces pombe) (UniProt P10842).
T1 sequence: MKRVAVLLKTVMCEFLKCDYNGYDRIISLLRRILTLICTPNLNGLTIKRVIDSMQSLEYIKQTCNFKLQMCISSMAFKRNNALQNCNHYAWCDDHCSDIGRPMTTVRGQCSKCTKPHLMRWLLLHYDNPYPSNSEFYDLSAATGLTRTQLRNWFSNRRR
The experiment is described as follows: co-IP.

In the case of “Mi-mCherry (M-cell-specific peptide Mi, C-terminally tagged with mCherry) (Schizosaccharomyces pombe)”, the binding result was “binds”.
